Target: HLA-A*02 on target cells
Assay: cell-based or functional assay

IC50 (molecules/cell), inhibition of Jurkat NFAT luciferase activation, mRNA titration in HeLa; construct CT1110 (CT292 + Murine blocker): 28000 molecules/cell
IC50 (molecules/cell), inhibition of Jurkat NFAT luciferase activation, mRNA titration in HeLa; construct CT1112 (CT299 + Murine blocker): 33700 molecules/cell
IC50 (molecules/cell), inhibition of Jurkat NFAT luciferase activation, mRNA titration in HeLa; construct CT1113 (CT1094 + Murine blocker): 38800 molecules/cell
B1: HLA-A*02 LIR1 inhibitory receptor C-1765 (mPA2.1) (receptor)
chain: DVLMTQTPLSLPVSLGDQASISCRSSQSIVHSNGNTYLEWYLQKPGQSPKLLIYKVSNRFSGVPDRFSGSGSGTDFTLKISRVEAEDLGVYYCFQGSHVPRTSGGGTKLEIKGGGGSGGGGSGGGGSGGQVQLQQSGPELVKPGASVRISCKASGYTFTSYHIHWVKQRPGQGLEWIGWIYPGNVNTEYNEKFKGKATLTADKSSSTAYMHLSSLTSEDSAVYFCAREEITYAMDYWGQGTSVTVSSYGSQSSKPYLLTHPSDPLELVVSGPSGGPSSPTTGPTSTSGPEDQPLTPTGSDPQSGLGRHLGVVIGILVAVILLLLLLLLLFLILRHRRQGKHWTSTQRKADFQHPAGAVGPEPTDRGLQWRSSPAADAQEENLYAAVKHTQPEDGVEMDTRSPHDEDPQAVTYAEVKHSRPRREMASPPSPLSGEFLDTKDRQAEEDRQMDTEAAASEAPQDVTYAQLHSLTLRREATEPPPSQEGPSPAVPSIYATLAIH

Reference: US20220339194A1 (A2 BIOTHERAPEUTICS, published 2022)
